Literature values as cited in patent US6703417B2, “Aqueous-prodrug compound comprising moiety of paclitaxel or derivatives thereof, method of preparing same and pharmaceutical composition comprising same” (Kolon Industries, Inc., priority 2000, dated 2004).

Structure (SMILES): CC(=O)O[C@H]1C(=O)[C@@]2(C)[C@H]([C@H](OC(=O)c3ccccc3)[C@]3(O)C[C@H](OC(=O)[C@H](O)[C@@H](NC(=O)c4ccccc4)c4ccccc4)C(C)=C1C3(C)C)[C@]1(OC(C)=O)CO[C@@H]1C[C@@H]2O [Paclitaxel]
- solubility in water: insoluble in water
